Assay results taken from publication doi:10.1101/2021.07.26.453741.
No constants are given. Whether binding was seen depends on the method and setting. A result given as binding can be weak or reduced; the word gives no strength. For part of these data: In cells and extracts the contact can be indirect.

Legend:
[1] = molecular target: Cpn20 (endogenous chloroplast co-chaperonin) (Chlamydomonas reinhardtii); assay: co-IP
[2] = molecular target: ClpR3 (Chlamydomonas reinhardtii); assay: cryo-EM structure
[3] = molecular target: ClpR6 (Chlamydomonas reinhardtii); assay: cryo-EM structure

Measured: binding

B1: ClpT4 (protein, UniProt A8J353 65-244)
chain: ATATAAPSELDDVGVSAAAESIIQYAINFARASETYEVHSWMVLMGILKYETCTAAKILKSLGLEDLYGAWNEVLWALNVCDGLQPRSFVTDIKFADRAFKVITAASDFAVWHGKDKMYSEDVLMALAAGGVLEDLFPDLNLSFERVRKAVEKESGRRYQLPDETEEAGPLKSEDDVSFL
binds: all assays above
